Results taken from the supplement of paper PMC11546906.
Counter-ions that a name gives are not always drawn. The list shows a part of the results. This data set is noisy: repeats of one test often differ as much as different tests do.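 A screen tested FDA-approved drugs combined with one-eighth-MIC colistin against a clinical mcr-1-positive, multidrug-resistant E. coli isolate, measuring OD600 at 24 h. Controls were untreated bacteria (growth) and broth alone (blank). An OD600 under 0.2 marked a combination as active.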

Test system: Escherichia coli 42 (mcr-1-positive clinical isolate)
Assay: OD600 after 24 h growth with compound plus colistin (absorbance units (OD600)); higher = more bacterial growth (less inhibition)
Conditions: first compound 25 µM; colistin concentration 0.5 ug/mL; incubation time 24 h; 37 °C

SMILES | OD600
CC1=C(C/C=C(\C)CCC[C@H](C)CCC[C@H](C)CCCC(C)C)C(=O)c2ccccc2C1=O [Vitamin K1] + CCC(C)CCCC(=O)N[C@@H](CCN)C(=O)N[C@H](C(=O)N[C@@H](CCN)C(=O)N[C@H]1CCNC(=O)[C@H]([C@@H](C)O)NC(=O)[C@H](CCN)NC(=O)[C@H](CCN)NC(=O)[C@H](CC(C)C)NC(=O)[C@@H](CC(C)C)NC(=O)[C@H](CCN)NC1=O)[C@@H](C)O [colistin] | inactive: 1.12
Cc1ccc(Nc2nccc(N(C)c3ccc4c(C)n(C)nc4c3)n2)cc1S(N)(=O)=O [Pazopanib] + CCC(C)CCCC(=O)N[C@@H](CCN)C(=O)N[C@H](C(=O)N[C@@H](CCN)C(=O)N[C@H]1CCNC(=O)[C@H]([C@@H](C)O)NC(=O)[C@H](CCN)NC(=O)[C@H](CCN)NC(=O)[C@H](CC(C)C)NC(=O)[C@@H](CC(C)C)NC(=O)[C@H](CCN)NC1=O)[C@@H](C)O [colistin] | inactive: 0.984
Oc1ncnc2[nH]ncc12 [Allopurinol] + CCC(C)CCCC(=O)N[C@@H](CCN)C(=O)N[C@H](C(=O)N[C@@H](CCN)C(=O)N[C@H]1CCNC(=O)[C@H]([C@@H](C)O)NC(=O)[C@H](CCN)NC(=O)[C@H](CCN)NC(=O)[C@H](CC(C)C)NC(=O)[C@@H](CC(C)C)NC(=O)[C@H](CCN)NC1=O)[C@@H](C)O [colistin] | inactive: 0.895
OCCN1C[C@H](O)[C@@H](O)[C@H](O)[C@H]1CO [Miglitol] + CCC(C)CCCC(=O)N[C@@H](CCN)C(=O)N[C@H](C(=O)N[C@@H](CCN)C(=O)N[C@H]1CCNC(=O)[C@H]([C@@H](C)O)NC(=O)[C@H](CCN)NC(=O)[C@H](CCN)NC(=O)[C@H](CC(C)C)NC(=O)[C@@H](CC(C)C)NC(=O)[C@H](CCN)NC1=O)[C@@H](C)O [colistin] | inactive: 0.844
CO/N=C(\C(=O)N[C@@H]1C(=O)N2C(C(=O)O)=C(COC(N)=O)CS[C@H]12)c1ccco1 [Cefuroxime sodium] + CCC(C)CCCC(=O)N[C@@H](CCN)C(=O)N[C@H](C(=O)N[C@@H](CCN)C(=O)N[C@H]1CCNC(=O)[C@H]([C@@H](C)O)NC(=O)[C@H](CCN)NC(=O)[C@H](CCN)NC(=O)[C@H](CC(C)C)NC(=O)[C@@H](CC(C)C)NC(=O)[C@H](CCN)NC1=O)[C@@H](C)O [colistin] | active: 0.036
CC[C@@H]([C@H](C)O)n1ncn(-c2ccc(N3CCN(c4ccc(OC[C@@H]5CO[C@@](Cn6cncn6)(c6ccc(F)cc6F)C5)cc4)CC3)cc2)c1=O [Posaconazole] + CCC(C)CCCC(=O)N[C@@H](CCN)C(=O)N[C@H](C(=O)N[C@@H](CCN)C(=O)N[C@H]1CCNC(=O)[C@H]([C@@H](C)O)NC(=O)[C@H](CCN)NC(=O)[C@H](CCN)NC(=O)[C@H](CC(C)C)NC(=O)[C@@H](CC(C)C)NC(=O)[C@H](CCN)NC1=O)[C@@H](C)O [colistin] | inactive: 1.12
COc1cccc2c1C(=O)c1c(O)c3c(c(O)c1C2=O)C[C@@](O)(C(=O)CO)C[C@@H]3O[C@H]1C[C@H](N)[C@@H](O)[C@H](C)O1 [Epirubicin hydrochloride] + CCC(C)CCCC(=O)N[C@@H](CCN)C(=O)N[C@H](C(=O)N[C@@H](CCN)C(=O)N[C@H]1CCNC(=O)[C@H]([C@@H](C)O)NC(=O)[C@H](CCN)NC(=O)[C@H](CCN)NC(=O)[C@H](CC(C)C)NC(=O)[C@@H](CC(C)C)NC(=O)[C@H](CCN)NC1=O)[C@@H](C)O [colistin] | inactive: 1
CN1CCC[C@@H]1CCO[C@](C)(c1ccccc1)c1ccc(Cl)cc1 [Clemastine fumarate] + CCC(C)CCCC(=O)N[C@@H](CCN)C(=O)N[C@H](C(=O)N[C@@H](CCN)C(=O)N[C@H]1CCNC(=O)[C@H]([C@@H](C)O)NC(=O)[C@H](CCN)NC(=O)[C@H](CCN)NC(=O)[C@H](CC(C)C)NC(=O)[C@@H](CC(C)C)NC(=O)[C@H](CCN)NC1=O)[C@@H](C)O [colistin] | inactive: 0.947
Cn1c(=O)c2nc[nH]c2n(C)c1=O [Theophylline] + CCC(C)CCCC(=O)N[C@@H](CCN)C(=O)N[C@H](C(=O)N[C@@H](CCN)C(=O)N[C@H]1CCNC(=O)[C@H]([C@@H](C)O)NC(=O)[C@H](CCN)NC(=O)[C@H](CCN)NC(=O)[C@H](CC(C)C)NC(=O)[C@@H](CC(C)C)NC(=O)[C@H](CCN)NC1=O)[C@@H](C)O [colistin] | inactive: 1.11
CC/C(=C(/CC)c1ccc(O)cc1)c1ccc(O)cc1 [Diethylstilbestrol] + CCC(C)CCCC(=O)N[C@@H](CCN)C(=O)N[C@H](C(=O)N[C@@H](CCN)C(=O)N[C@H]1CCNC(=O)[C@H]([C@@H](C)O)NC(=O)[C@H](CCN)NC(=O)[C@H](CCN)NC(=O)[C@H](CC(C)C)NC(=O)[C@@H](CC(C)C)NC(=O)[C@H](CCN)NC1=O)[C@@H](C)O [colistin] | active: 0.035
CCCNCC(O)COc1ccccc1C(=O)CCc1ccccc1 (centres undefined) [Propafenone] + CCC(C)CCCC(=O)N[C@@H](CCN)C(=O)N[C@H](C(=O)N[C@@H](CCN)C(=O)N[C@H]1CCNC(=O)[C@H]([C@@H](C)O)NC(=O)[C@H](CCN)NC(=O)[C@H](CCN)NC(=O)[C@H](CC(C)C)NC(=O)[C@@H](CC(C)C)NC(=O)[C@H](CCN)NC1=O)[C@@H](C)O [colistin] | inactive: 0.932
C[C@H](C(=O)O)c1cccc(C(=O)c2ccccc2)c1 [S-(+)-Ketoprofen] + CCC(C)CCCC(=O)N[C@@H](CCN)C(=O)N[C@H](C(=O)N[C@@H](CCN)C(=O)N[C@H]1CCNC(=O)[C@H]([C@@H](C)O)NC(=O)[C@H](CCN)NC(=O)[C@H](CCN)NC(=O)[C@H](CC(C)C)NC(=O)[C@@H](CC(C)C)NC(=O)[C@H](CCN)NC1=O)[C@@H](C)O [colistin] | inactive: 0.909
COC(=O)[C@H](c1ccccc1Cl)N1CCc2sccc2C1 (racemic) [(±) Clopidogrel hydrogen sulfate] + CCC(C)CCCC(=O)N[C@@H](CCN)C(=O)N[C@H](C(=O)N[C@@H](CCN)C(=O)N[C@H]1CCNC(=O)[C@H]([C@@H](C)O)NC(=O)[C@H](CCN)NC(=O)[C@H](CCN)NC(=O)[C@H](CC(C)C)NC(=O)[C@@H](CC(C)C)NC(=O)[C@H](CCN)NC1=O)[C@@H](C)O [colistin] | inactive: 1.11
Nc1nc(CC(=O)Nc2ccc(CCNC[C@H](O)c3ccccc3)cc2)cs1 [Mirabegron] + CCC(C)CCCC(=O)N[C@@H](CCN)C(=O)N[C@H](C(=O)N[C@@H](CCN)C(=O)N[C@H]1CCNC(=O)[C@H]([C@@H](C)O)NC(=O)[C@H](CCN)NC(=O)[C@H](CCN)NC(=O)[C@H](CC(C)C)NC(=O)[C@@H](CC(C)C)NC(=O)[C@H](CCN)NC1=O)[C@@H](C)O [colistin] | inactive: 1.03
CNC(=O)c1cc(Oc2ccc(NC(=O)Nc3ccc(Cl)c(C(F)(F)F)c3)c(F)c2)ccn1 [Regorafenib monohydrate] + CCC(C)CCCC(=O)N[C@@H](CCN)C(=O)N[C@H](C(=O)N[C@@H](CCN)C(=O)N[C@H]1CCNC(=O)[C@H]([C@@H](C)O)NC(=O)[C@H](CCN)NC(=O)[C@H](CCN)NC(=O)[C@H](CC(C)C)NC(=O)[C@@H](CC(C)C)NC(=O)[C@H](CCN)NC1=O)[C@@H](C)O [colistin] | inactive: 0.967
CC(=O)Oc1ccccc1C(=O)Nc1ncc([N+](=O)[O-])s1 [Nitazoxanide] + CCC(C)CCCC(=O)N[C@@H](CCN)C(=O)N[C@H](C(=O)N[C@@H](CCN)C(=O)N[C@H]1CCNC(=O)[C@H]([C@@H](C)O)NC(=O)[C@H](CCN)NC(=O)[C@H](CCN)NC(=O)[C@H](CC(C)C)NC(=O)[C@@H](CC(C)C)NC(=O)[C@H](CCN)NC1=O)[C@@H](C)O [colistin] | inactive: 0.874
Cc1nc(Nc2ncc(C(=O)Nc3c(C)cccc3Cl)s2)cc(N2CCN(CCO)CC2)n1 [Dasatinib monohydrate] + CCC(C)CCCC(=O)N[C@@H](CCN)C(=O)N[C@H](C(=O)N[C@@H](CCN)C(=O)N[C@H]1CCNC(=O)[C@H]([C@@H](C)O)NC(=O)[C@H](CCN)NC(=O)[C@H](CCN)NC(=O)[C@H](CC(C)C)NC(=O)[C@@H](CC(C)C)NC(=O)[C@H](CCN)NC1=O)[C@@H](C)O [colistin] | inactive: 0.998
Cc1cccc(C)c1OCC(C)N (centres undefined) [Mexiletine hydrochloride] + CCC(C)CCCC(=O)N[C@@H](CCN)C(=O)N[C@H](C(=O)N[C@@H](CCN)C(=O)N[C@H]1CCNC(=O)[C@H]([C@@H](C)O)NC(=O)[C@H](CCN)NC(=O)[C@H](CCN)NC(=O)[C@H](CC(C)C)NC(=O)[C@@H](CC(C)C)NC(=O)[C@H](CCN)NC1=O)[C@@H](C)O [colistin] | inactive: 1.08
Nc1ccc(/N=N/c2ccccc2)c(N)n1 [Phenazopyridine hydrochloride] + CCC(C)CCCC(=O)N[C@@H](CCN)C(=O)N[C@H](C(=O)N[C@@H](CCN)C(=O)N[C@H]1CCNC(=O)[C@H]([C@@H](C)O)NC(=O)[C@H](CCN)NC(=O)[C@H](CCN)NC(=O)[C@H](CC(C)C)NC(=O)[C@@H](CC(C)C)NC(=O)[C@H](CCN)NC1=O)[C@@H](C)O [colistin] | inactive: 0.779

Another view of some results above:
SMILES,OD600
COc1cccc2c1C(=O)c1c(O)c3c(c(O)c1C2=O)C[C@@](O)(C(=O)CO)C[C@@H]3O[C@H]1C[C@H](N)[C@@H](O)[C@H](C)O1 [Epirubicin hydrochloride] + CCC(C)CCCC(=O)N[C@@H](CCN)C(=O)N[C@H](C(=O)N[C@@H](CCN)C(=O)N[C@H]1CCNC(=O)[C@H]([C@@H](C)O)NC(=O)[C@H](CCN)NC(=O)[C@H](CCN)NC(=O)[C@H](CC(C)C)NC(=O)[C@@H](CC(C)C)NC(=O)[C@H](CCN)NC1=O)[C@@H](C)O [colistin],inactive: 1
CN1CCC[C@@H]1CCO[C@](C)(c1ccccc1)c1ccc(Cl)cc1 [Clemastine fumarate] + CCC(C)CCCC(=O)N[C@@H](CCN)C(=O)N[C@H](C(=O)N[C@@H](CCN)C(=O)N[C@H]1CCNC(=O)[C@H]([C@@H](C)O)NC(=O)[C@H](CCN)NC(=O)[C@H](CCN)NC(=O)[C@H](CC(C)C)NC(=O)[C@@H](CC(C)C)NC(=O)[C@H](CCN)NC1=O)[C@@H](C)O [colistin],inactive: 0.947
